PubChem BioAssay AID1794845 (National Center for Advancing Translational Sciences (NCATS), 2023)
The campaign covered roughly 6,900 compounds. Fewer than 10 were called active. The call rests on the fitted dose curve; in most records, active means well fitted curve in the direction sought with a large enough effect; inconclusive means small, poorly fitted or top-dose-only effect, or another doubt; inactive means no such curve, though single readings can be large or run the other way. Some of the results follow.

The chains behind the UniProt entries cited, without tags or fusion partners. Where a name states a change or a piece, a line headed by the entry shows the natural chain unless it says otherwise.
UniProt C7C422: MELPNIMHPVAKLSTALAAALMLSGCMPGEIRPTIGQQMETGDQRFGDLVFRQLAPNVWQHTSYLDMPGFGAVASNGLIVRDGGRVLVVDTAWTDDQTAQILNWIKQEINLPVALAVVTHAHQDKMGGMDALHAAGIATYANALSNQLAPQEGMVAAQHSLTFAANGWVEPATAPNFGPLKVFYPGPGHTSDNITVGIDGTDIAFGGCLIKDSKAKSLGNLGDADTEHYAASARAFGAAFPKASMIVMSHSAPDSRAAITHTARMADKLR

Biological target: Metallo-beta-lactamase type 2 (Klebsiella pneumoniae) (UniProt C7C422)
Experiment: qHTS to identify inhibitors of the New Delhi Metallo-beta-lactamase (NDM): primary screen against the NCATS Gemini Collection; further: % of control where 0% means no effect
Conditions: NDM-1 enzyme, meropenem hydrolysis, absorbance 300 nm; at 38.4 µM (top of the series) unless noted
How it was run: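 Meropenem hydrolysis (50 uM final) by 2 nM NDM-1 read as 300 nm absorbance after 30 min, following >30 min compound–enzyme preincubation in HEPES pH 7.0 with 1 uM ZnSO4 and 0.01% Tween20.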

Activity % (negative = inhibition), inactive:
COCC(=O)N[C@H]1C[C@@H](CO)N(Cc2sccc2C)C1 8.43%, CC(C)n1cnnc1C1CCCN1C(=O)Nc1ccccc1 (stereo unspecified) 1.7%, Cn1nc(C2CC2)cc1NC(=O)C1CCCC1 -1.49% [at 57.5 µM], O=C1NC2(CCN([S+](=O)([O-])c3ccccc3)C2)Oc2ccccc21 (stereo unspecified) 6.06% [at 57.5 µM], CCn1c(C2CCCNC2)nn(Cc2csc(-c3ccccc3)n2)c1=O (stereo unspecified) 5.68%, Cc1ccc(-n2ccnc2-c2cc3n(n2)CCNC3)cc1N1CCCC1=O -2.82%, Fc1ccc(-c2cc(C3CCNCC3)[nH]n2)cc1 -3.5%, Cc1nnc2n1CCC(N(C)S(=O)(=O)c1cccnc1)CC2 (stereo unspecified) -1.44%, Nc1nc2c(c(=O)[nH]1)CCN(C(=O)Cc1c[nH]c3ccccc13)C2 11.9%, CC(C)c1cc(C(=O)NCc2cccnc2Oc2cccc(C(F)(F)F)c2)n[nH]1 -1.34%, Cc1oc(C(O)c2ccccc2)nc1C(=O)Nc1ccncc1 (stereo unspecified) -0.182% [at 57.5 µM], O=c1[nH]c(C2CCN(Cc3ccc(-c4cccnc4)cc3)CC2)nc2ccc(F)cc12 -1.95%, CN(C)c1cc(N2CCCC(NS(C)(=O)=O)C2)ncn1 (stereo unspecified) 2.95%, NC(=O)c1ccc(C(F)(F)F)nc1N1CCC(N2CCCC(O)C2)CC1 (stereo unspecified) -1.45%, CC(C)c1noc(-c2cn(C3CCN(C(=O)C4(c5ccccc5)CC4)CC3)nn2)n1 -3.01%, COc1ccc(CC(=O)Nc2ccc3n(c2=O)C[C@H]2C[C@@H]3CN(C(=O)c3ccc(-c4ccccc4)cc3)C2)cc1 20.5%, O=C1NCCCCCCN(C(=O)CCc2ccccc2)[C@H]2CCCC[C@@H]12 24.6%, COc1ccc(CCCN2C(=O)O[C@@H]3CN(c4nc(C)cc(C)n4)C[C@@H]32)cc1 34.9%, CC(C)(C)n1cnc2cccnc21 -0.569% [at 77.1 µM], Fc1ccccc1CN1CCNc2cnc(OCc3cccnc3)cc2C1 -1.18% [at 57.5 µM], CNC(=O)C1(N2CCC[C@H]2C(=O)N(C)CCN(C)C)CCC1 13.7% [at 57.5 µM], O=C(O)c1ccc(-c2nc3ccncc3[nH]2)cc1 21.5% [at 77.1 µM], Cc1ccc(-c2nc3cnccn3c2NCCC(=O)O)cc1 3.5%, O=C(CN1CC2CC(C1)[C@H]1CCCC(=O)N1C2)N1CCCCC1 (stereo partly specified) -0.229%, Cc1noc(-c2ccn3c(CNC(=O)COc4ccccc4)nnc3c2)n1 11.4%, COc1ccc(-c2nc3c(C)cccc3cc2CN2CC[C@@H](O)C2)cc1 1%, O=C(NCC1(COc2ccc(C(F)(F)F)cn2)C[C@@H](O)[C@@H](O)C1)c1cnccn1 (stereo partly specified) 28.6%, CN1C(=O)CN(Cc2ccccc2C#N)C(=O)c2ccccc21 -0.818%, Cc1cc2nc3n(c(=O)c2n1CC(=O)NC1CCCCC1)CCCCC3 6.24%, O=C1CO[C@H]2CN(C3CCOCC3)C[C@H]2N1c1ccccc1 7.69% [at 57.5 µM], CCCn1ncc(CN2CCCC23CCN(c2ncccn2)CC3)c1C 5.06%, O=C(NCc1ccc(Cl)cc1)c1cc(-c2ccc[nH]2)n[nH]1 3.06%, CN1C[C@H](NCc2nccn2C)CCC[C@@H](C(=O)NC2CCOCC2)CC1=O 11.5% [at 57.5 µM], COC(=O)C1=C(C)NC(=O)NC1c1ccc(Cl)cc1 (stereo unspecified) 51.2%, Cc1ccc(-c2cc3n(n2)CCCN(C(=O)CCN2C(=O)NC(C)(C)C2=O)C3)cc1C -11.6%, COC(=O)NC(C)C(=O)N1Cc2cnc(Cc3ccc(OC)cc3)nc2C1 (stereo unspecified) -1.84%, c1ccc2c(c1)OCC(CCn1ccnc1-c1cc3n(n1)CCNC3)O2 (stereo unspecified) 14.9%, O=C(Nc1cccc(C(F)(F)F)c1)N[C@H]1CO[C@H]2[C@@H]1OC[C@@H]2n1cc(-c2ccccc2)nn1 0.568%, CNC(=O)N1CCC(C2CCN(C(=O)c3ccc4ccccc4n3)C2)CC1 (stereo unspecified) 15.3%, O=C1CC(Cc2ccccc2)CN1CC(=O)N1CCOC2(CCCC2)C1 (stereo unspecified) 9.71%, COc1ccc(NC(=O)N[C@H]2[C@H](O)[C@@H](N(C)CCc3ccccn3)[C@@H]3OC[C@H]2O3)cc1 1.6% [at 57.5 µM], CCNc1ncnc2sc3c(c12)CCN(C(=O)CCOC)C3 58.2%, CCC1(C(=O)O)CCCN(Cc2ccccc2)C1 (stereo unspecified) -2.14%, CCC(CC)NC(=O)c1ccc2c(c1)N(S(C)(=O)=O)CC2 1.78%, CC(=O)N1CC2(CCN(CCCn3ccnc3C)CC2)CC1C(=O)O (stereo unspecified) -0.0373%, N[C@H]1CN(C(=O)c2cccc(-n3cnnc3)c2)C[C@@H]1c1ccccc1 -3.3%, CC(C)c1ccc(S(=O)(=O)N2CCCN(C)c3ccccc32)cc1 5.5%, Cc1ccc(C(=O)N2CCCC2C(=O)N2CCCC2c2nc3ccncc3[nH]2)cc1 (stereo unspecified) 0.286%, CC(C)(O)C#Cc1ccc(C(=O)N2CCOCC2CC(=O)O)o1 (stereo unspecified) 12.4%, COc1ccccc1Oc1ncccc1CNCc1c(F)cccc1Cl 1.44%, CN(C1CCc2nn(CC3CC3)c(=O)n2CC1)S(=O)(=O)c1ccc(C#N)cc1 (stereo unspecified) -11.6%, COc1cccc(CC(=O)N2CC[C@@H](NC(=O)c3cnccn3)[C@H](O)C2)c1 2.06%, CCNC(=O)[C@@H]1C[C@H](NC(=O)Cc2cccc(F)c2F)CN1C1CCCC1 2.67%, CCCS(=O)(=O)N1CCC(F)(c2nc(CC(C)C)no2)CC1 -9.88%, CN(C)Cc1nnc(C2CC(NC(=O)Cc3c(F)cccc3Cl)C2)n1C (stereo unspecified) 7.26%, OC1CC(c2cc(N3CCC(c4nc5ccccc5[nH]4)CC3)ncn2)C1 (stereo unspecified) 1.96%
